Reference: paper doi:10.1101/2024.12.02.626298

How the values were obtained:
[1] = molecular target: CrsL-FLAG (M. smegmatis) (UniProt A0R4M8); test: co-IP
[2] = molecular target: CrsL-His (M. smegmatis) (UniProt A0R4M8); test: far-Western, overlay or dot blot

| Substance | binding [1] | binding [2] |
| --- | --- | --- |
| CarD (from UniProt A0R561 1-162) | binds | – |
| CarD-NT (from UniProt A0R561 1-162) | – | binds |
| DnaK chaperon protein (MSMEG_0709) (from UniProt A0QQC8 1-622) | binds | – |

No constants are given. Whether binding was seen depends on the method and setting. A result given as binding can be weak or reduced; the word gives no strength. For part of these data: In cells and extracts the contact can be indirect.
